{"sequences": {"note": "Sequences of proteins named here, by UniProt entry; tags and fusion partners are left off. A change or cut given only in a name is not applied to a line headed by its entry.", "UniProt P22695": "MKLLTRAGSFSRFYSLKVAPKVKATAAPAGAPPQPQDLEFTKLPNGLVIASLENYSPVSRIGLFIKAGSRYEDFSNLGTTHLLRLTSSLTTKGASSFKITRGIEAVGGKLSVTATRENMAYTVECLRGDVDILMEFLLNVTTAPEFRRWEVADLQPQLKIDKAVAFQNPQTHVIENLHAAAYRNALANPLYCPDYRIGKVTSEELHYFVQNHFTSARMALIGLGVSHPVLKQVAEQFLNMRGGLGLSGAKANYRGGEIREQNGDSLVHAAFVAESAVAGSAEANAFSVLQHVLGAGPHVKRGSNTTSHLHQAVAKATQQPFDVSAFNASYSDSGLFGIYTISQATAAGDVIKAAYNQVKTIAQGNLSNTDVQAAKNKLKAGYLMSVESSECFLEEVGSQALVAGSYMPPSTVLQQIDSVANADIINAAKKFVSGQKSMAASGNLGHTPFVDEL", "UniProt P32942": "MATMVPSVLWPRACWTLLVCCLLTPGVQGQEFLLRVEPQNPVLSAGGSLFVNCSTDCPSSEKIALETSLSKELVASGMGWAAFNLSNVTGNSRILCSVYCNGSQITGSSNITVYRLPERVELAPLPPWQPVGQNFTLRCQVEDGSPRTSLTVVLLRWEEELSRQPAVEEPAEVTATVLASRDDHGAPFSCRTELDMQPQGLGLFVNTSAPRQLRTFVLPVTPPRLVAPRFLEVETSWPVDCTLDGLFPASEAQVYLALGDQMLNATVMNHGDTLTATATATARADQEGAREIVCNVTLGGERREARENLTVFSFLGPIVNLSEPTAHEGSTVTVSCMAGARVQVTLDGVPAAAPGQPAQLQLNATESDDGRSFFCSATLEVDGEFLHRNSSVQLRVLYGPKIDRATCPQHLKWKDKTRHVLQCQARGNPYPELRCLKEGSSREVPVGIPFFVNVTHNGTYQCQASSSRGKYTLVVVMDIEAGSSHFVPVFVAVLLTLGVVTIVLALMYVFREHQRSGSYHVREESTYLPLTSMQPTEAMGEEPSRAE", "UniProt P24539": "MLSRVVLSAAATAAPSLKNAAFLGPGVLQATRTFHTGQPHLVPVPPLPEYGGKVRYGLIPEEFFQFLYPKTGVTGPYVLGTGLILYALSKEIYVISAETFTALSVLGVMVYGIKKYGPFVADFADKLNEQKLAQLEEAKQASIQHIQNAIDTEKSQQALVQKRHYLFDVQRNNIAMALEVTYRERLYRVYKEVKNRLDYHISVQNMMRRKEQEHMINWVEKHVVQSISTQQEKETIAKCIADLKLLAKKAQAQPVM", "UniProt P19367": "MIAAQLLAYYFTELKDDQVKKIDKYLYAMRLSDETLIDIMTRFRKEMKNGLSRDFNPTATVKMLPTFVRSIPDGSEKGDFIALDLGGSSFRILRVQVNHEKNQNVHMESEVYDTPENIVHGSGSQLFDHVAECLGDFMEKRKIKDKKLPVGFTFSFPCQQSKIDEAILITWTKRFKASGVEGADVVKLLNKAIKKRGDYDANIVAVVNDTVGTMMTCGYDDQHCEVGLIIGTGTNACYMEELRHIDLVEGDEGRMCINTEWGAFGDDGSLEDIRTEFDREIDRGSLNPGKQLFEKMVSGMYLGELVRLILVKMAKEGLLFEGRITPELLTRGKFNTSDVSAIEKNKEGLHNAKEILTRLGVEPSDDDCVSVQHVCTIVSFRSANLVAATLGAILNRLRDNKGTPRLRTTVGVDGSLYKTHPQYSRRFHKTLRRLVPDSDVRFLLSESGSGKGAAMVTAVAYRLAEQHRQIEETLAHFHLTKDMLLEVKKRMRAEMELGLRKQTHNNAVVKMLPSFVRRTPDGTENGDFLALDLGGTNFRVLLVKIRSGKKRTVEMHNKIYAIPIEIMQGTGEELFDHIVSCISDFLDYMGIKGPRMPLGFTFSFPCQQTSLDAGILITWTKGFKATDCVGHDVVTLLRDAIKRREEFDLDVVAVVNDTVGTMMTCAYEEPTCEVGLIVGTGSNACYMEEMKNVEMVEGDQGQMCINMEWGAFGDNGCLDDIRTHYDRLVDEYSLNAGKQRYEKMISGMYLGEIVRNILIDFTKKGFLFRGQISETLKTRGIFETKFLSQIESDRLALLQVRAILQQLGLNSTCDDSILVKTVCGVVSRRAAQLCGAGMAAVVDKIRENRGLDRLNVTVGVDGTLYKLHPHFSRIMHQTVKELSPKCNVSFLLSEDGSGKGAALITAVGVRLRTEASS", "UniProt P34932": "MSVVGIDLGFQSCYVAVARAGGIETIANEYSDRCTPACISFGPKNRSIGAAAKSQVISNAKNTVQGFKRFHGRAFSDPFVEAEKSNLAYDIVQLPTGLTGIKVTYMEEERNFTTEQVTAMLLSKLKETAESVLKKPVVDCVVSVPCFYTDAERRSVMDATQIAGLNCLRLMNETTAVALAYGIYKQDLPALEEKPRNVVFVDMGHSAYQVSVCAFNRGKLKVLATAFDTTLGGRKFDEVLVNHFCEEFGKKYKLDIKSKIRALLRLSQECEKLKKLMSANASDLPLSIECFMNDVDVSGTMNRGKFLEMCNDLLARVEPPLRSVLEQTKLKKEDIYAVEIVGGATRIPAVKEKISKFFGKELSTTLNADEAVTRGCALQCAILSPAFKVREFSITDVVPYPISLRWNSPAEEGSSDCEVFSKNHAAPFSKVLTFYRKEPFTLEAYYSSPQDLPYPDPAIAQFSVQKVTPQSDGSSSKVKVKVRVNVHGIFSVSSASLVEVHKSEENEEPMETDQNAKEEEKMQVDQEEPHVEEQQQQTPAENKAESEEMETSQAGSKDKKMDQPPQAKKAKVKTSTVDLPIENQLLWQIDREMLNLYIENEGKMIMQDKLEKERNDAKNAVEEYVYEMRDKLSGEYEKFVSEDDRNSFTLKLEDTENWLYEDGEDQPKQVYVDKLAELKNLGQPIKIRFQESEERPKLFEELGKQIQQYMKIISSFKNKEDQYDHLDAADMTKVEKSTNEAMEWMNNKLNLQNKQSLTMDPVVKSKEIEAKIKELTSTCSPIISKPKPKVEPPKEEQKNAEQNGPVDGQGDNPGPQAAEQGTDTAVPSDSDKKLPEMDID", "UniProt P31321, whole entry": "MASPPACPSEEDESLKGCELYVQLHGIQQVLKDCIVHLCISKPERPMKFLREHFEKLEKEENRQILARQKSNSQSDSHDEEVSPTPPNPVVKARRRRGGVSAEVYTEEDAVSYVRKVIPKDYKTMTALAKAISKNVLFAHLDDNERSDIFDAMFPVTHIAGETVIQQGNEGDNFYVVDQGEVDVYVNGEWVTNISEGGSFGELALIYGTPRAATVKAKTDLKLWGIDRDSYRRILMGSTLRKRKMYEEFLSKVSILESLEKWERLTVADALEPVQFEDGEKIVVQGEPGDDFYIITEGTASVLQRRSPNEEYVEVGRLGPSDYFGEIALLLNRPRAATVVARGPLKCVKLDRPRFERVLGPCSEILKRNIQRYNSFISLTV", "UniProt P17844": "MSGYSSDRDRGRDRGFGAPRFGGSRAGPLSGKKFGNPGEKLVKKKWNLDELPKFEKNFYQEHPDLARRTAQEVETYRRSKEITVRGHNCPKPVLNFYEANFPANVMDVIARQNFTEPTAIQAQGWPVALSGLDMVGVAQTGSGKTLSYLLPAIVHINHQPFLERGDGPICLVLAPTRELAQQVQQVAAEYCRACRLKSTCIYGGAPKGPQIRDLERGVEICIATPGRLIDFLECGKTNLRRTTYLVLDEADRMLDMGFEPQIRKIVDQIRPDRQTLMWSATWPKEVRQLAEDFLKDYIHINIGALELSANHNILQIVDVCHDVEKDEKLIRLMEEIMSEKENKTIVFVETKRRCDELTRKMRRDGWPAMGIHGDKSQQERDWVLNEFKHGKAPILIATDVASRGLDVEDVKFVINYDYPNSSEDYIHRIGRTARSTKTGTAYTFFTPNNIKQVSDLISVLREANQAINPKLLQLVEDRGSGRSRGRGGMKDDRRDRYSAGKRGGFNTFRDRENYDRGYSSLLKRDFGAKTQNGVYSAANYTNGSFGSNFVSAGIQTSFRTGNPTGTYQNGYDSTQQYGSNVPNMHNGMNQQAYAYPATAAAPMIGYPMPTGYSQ", "UniProt P20340": "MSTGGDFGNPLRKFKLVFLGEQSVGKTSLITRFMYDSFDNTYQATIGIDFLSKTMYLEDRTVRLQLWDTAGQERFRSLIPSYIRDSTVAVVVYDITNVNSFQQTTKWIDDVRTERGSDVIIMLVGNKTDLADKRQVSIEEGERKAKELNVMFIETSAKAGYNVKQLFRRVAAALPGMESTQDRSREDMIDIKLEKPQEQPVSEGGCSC", "UniProt P16930": "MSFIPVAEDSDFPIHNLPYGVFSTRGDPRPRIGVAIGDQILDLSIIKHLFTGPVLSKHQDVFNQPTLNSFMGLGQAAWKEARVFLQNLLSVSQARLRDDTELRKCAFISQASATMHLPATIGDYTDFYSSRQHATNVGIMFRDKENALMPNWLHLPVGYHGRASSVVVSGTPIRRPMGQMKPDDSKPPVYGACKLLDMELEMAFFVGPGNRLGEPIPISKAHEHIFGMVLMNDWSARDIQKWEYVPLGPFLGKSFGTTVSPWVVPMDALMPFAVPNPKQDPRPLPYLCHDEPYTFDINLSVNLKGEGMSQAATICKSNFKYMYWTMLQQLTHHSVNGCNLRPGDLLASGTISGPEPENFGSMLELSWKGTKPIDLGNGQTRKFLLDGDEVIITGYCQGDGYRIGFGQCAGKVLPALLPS", "UniProt P33240": "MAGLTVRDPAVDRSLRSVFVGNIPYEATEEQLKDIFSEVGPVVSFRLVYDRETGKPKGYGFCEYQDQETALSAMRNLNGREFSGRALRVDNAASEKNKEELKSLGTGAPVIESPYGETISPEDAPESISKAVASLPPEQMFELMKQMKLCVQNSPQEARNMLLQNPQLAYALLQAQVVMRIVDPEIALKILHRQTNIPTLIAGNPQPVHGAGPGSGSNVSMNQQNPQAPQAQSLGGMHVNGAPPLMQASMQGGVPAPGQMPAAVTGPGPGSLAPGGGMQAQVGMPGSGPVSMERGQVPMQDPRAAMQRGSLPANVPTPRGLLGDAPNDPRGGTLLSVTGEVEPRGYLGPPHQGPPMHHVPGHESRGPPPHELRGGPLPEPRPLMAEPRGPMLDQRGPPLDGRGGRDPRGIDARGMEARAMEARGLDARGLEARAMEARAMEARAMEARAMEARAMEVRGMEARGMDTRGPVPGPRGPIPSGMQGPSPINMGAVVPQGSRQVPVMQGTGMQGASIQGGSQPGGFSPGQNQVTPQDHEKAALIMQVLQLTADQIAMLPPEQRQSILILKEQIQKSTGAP", "UniProt P18669": "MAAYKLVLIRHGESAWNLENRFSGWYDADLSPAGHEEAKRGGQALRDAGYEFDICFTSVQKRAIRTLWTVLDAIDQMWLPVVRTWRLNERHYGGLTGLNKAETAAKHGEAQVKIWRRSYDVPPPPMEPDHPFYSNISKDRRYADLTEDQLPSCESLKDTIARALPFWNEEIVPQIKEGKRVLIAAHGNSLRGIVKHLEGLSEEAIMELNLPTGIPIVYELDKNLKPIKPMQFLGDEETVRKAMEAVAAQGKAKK", "UniProt P30281": "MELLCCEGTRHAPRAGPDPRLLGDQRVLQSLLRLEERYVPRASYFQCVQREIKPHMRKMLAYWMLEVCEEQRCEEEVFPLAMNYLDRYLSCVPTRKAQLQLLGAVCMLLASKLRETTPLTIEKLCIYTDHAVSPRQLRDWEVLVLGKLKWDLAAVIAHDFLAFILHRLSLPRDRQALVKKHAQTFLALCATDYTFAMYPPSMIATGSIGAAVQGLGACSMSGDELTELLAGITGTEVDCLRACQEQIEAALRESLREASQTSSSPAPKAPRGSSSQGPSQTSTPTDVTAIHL"}, "source": "the supplement of paper PMC6411743", "compound": "Nc1ncnc2c1ncn2[C@@H]1O[C@H](COP(=O)(O)OP(=O)(O)OP(=O)(O)O)[C@@H](O)[C@H]1O [adenosine triphosphate]", "test": "NP40-soluble protein abundance relative to vehicle (solubility fold change) (ratio); higher = more soluble protein in presence of ATP", "method_in_brief": "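Jurkat crude lysate (Dounce-homogenised) was treated with eight concentrations from 0.1 to 10 mM for 10 min at room temperature, then 3 min at 37 °C. It was solubilised with 0.8% NP40 and benzonase (60 min, 4 °C) and ultracentrifuged, and the supernatant was TMT-labelled for LC-MS/MS. Intensities were vsn-normalised, and the value is the fold change against the NP40-processed vehicle per replicate, from three independent experiments.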", "note": "± gives the standard deviation of the averaged measurements. The entries are a selection whose mix differs from that of the whole data set.", "data": [{"target": "PLCG2 (UniProt P16885)", "values": [{"measurement": "NP40-soluble protein abundance", "setting": "concentration: 1mM", "value": "1.06 ± 0.1"}, {"measurement": "NP40-soluble protein abundance", "setting": "concentration: 2mM", "value": "1.04 ± 0.095"}, {"measurement": "NP40-soluble protein abundance", "setting": "concentration: 4mM", "value": "1.03 ± 0.11"}, {"measurement": "NP40-soluble protein abundance", "setting": "concentration: 6mM", "value": "0.995 ± 0.13"}, {"measurement": "NP40-soluble protein abundance", "setting": "concentration: 8mM", "value": "1.03 ± 0.073"}, {"measurement": "NP40-soluble protein abundance", "setting": "concentration: 10mM", "value": "1.01 ± 0.059"}]}, {"target": "UQCRC2 (UniProt P22695)", "values": [{"measurement": "NP40-soluble protein abundance", "setting": "concentration: 1mM", "value": "0.949 ± 0.041"}, {"measurement": "NP40-soluble protein abundance", "setting": "concentration: 2mM", "value": "0.937 ± 0.031"}, {"measurement": "NP40-soluble protein abundance", "setting": "concentration: 4mM", "value": "0.905 ± 0.025"}, {"measurement": "NP40-soluble protein abundance", "setting": "concentration: 6mM", "value": "0.894 ± 0.04"}, {"measurement": "NP40-soluble protein abundance", "setting": "concentration: 8mM", "value": "0.902 ± 0.017"}, {"measurement": "NP40-soluble protein abundance", "setting": "concentration: 10mM", "value": "0.918 ± 0.035"}]}, {"target": "ICAM3 (UniProt P32942)", "values": [{"measurement": "NP40-soluble protein abundance", "setting": "concentration: 1mM", "value": "0.946 ± 0.043"}, {"measurement": "NP40-soluble protein abundance", "setting": "concentration: 2mM", "value": "0.925 ± 0.018"}, {"measurement": "NP40-soluble protein abundance", "setting": "concentration: 4mM", "value": "0.921 ± 0.027"}, {"measurement": "NP40-soluble protein abundance", "setting": "concentration: 6mM", "value": "0.975 ± 0.029"}, {"measurement": "NP40-soluble protein abundance", "setting": "concentration: 8mM", "value": "0.876 ± 0.044"}, {"measurement": "NP40-soluble protein abundance", "setting": "concentration: 10mM", "value": "0.853 ± 0.049"}]}, {"target": "UniProt P24539 and related entries", "values": [{"measurement": "NP40-soluble protein abundance", "setting": "concentration: 1mM", "value": "0.973 ± 0.14"}, {"measurement": "NP40-soluble protein abundance", "setting": "concentration: 2mM", "value": "0.878 ± 0.07"}, {"measurement": "NP40-soluble protein abundance", "setting": "concentration: 4mM", "value": "0.896 ± 0.093"}, {"measurement": "NP40-soluble protein abundance", "setting": "concentration: 6mM", "value": "0.902 ± 0.14"}, {"measurement": "NP40-soluble protein abundance", "setting": "concentration: 8mM", "value": "0.993 ± 0.082"}, {"measurement": "NP40-soluble protein abundance", "setting": "concentration: 10mM", "value": "0.792 ± 0.13"}]}, {"target": "UniProt P19367 and related entries", "values": [{"measurement": "NP40-soluble protein abundance", "setting": "concentration: 1mM", "value": "1.02 ± 0.085"}, {"measurement": "NP40-soluble protein abundance", "setting": "concentration: 2mM", "value": "1 ± 0.074"}, {"measurement": "NP40-soluble protein abundance", "setting": "concentration: 4mM", "value": "0.991 ± 0.049"}, {"measurement": "NP40-soluble protein abundance", "setting": "concentration: 6mM", "value": "0.917 ± 0.11"}, {"measurement": "NP40-soluble protein abundance", "setting": "concentration: 8mM", "value": "0.997 ± 0.038"}, {"measurement": "NP40-soluble protein abundance", "setting": "concentration: 10mM", "value": "0.987 ± 0.06"}]}, {"target": "HSPA4 (UniProt P34932)", "values": [{"measurement": "NP40-soluble protein abundance", "setting": "concentration: 1mM", "value": "0.96 ± 0.012"}, {"measurement": "NP40-soluble protein abundance", "setting": "concentration: 2mM", "value": "0.9528 ± 0.0094"}, {"measurement": "NP40-soluble protein abundance", "setting": "concentration: 4mM", "value": "0.9223 ± 0.0032"}, {"measurement": "NP40-soluble protein abundance", "setting": "concentration: 6mM", "value": "0.949 ± 0.017"}, {"measurement": "NP40-soluble protein abundance", "setting": "concentration: 8mM", "value": "0.913 ± 0.014"}, {"measurement": "NP40-soluble protein abundance", "setting": "concentration: 10mM", "value": "0.925 ± 0.026"}]}, {"target": "YY1 (UniProt P25490)", "values": [{"measurement": "NP40-soluble protein abundance", "setting": "concentration: 1mM", "value": "0.973 ± 0.05"}, {"measurement": "NP40-soluble protein abundance", "setting": "concentration: 2mM", "value": "0.976 ± 0.021"}, {"measurement": "NP40-soluble protein abundance", "setting": "concentration: 4mM", "value": "0.973 ± 0.027"}, {"measurement": "NP40-soluble protein abundance", "setting": "concentration: 6mM", "value": "1.01 ± 0.06"}, {"measurement": "NP40-soluble protein abundance", "setting": "concentration: 8mM", "value": "0.996 ± 0.031"}, {"measurement": "NP40-soluble protein abundance", "setting": "concentration: 10mM", "value": "0.996 ± 0.022"}]}, {"target": "PRKAR1B (UniProt P31321)", "values": [{"measurement": "NP40-soluble protein abundance", "setting": "concentration: 1mM", "value": "1.04 ± 0.083"}, {"measurement": "NP40-soluble protein abundance", "setting": "concentration: 2mM", "value": "1.01 ± 0.048"}, {"measurement": "NP40-soluble protein abundance", "setting": "concentration: 4mM", "value": "1.03 ± 0.014"}, {"measurement": "NP40-soluble protein abundance", "setting": "concentration: 6mM", "value": "1.06 ± 0.066"}, {"measurement": "NP40-soluble protein abundance", "setting": "concentration: 8mM", "value": "1.11 ± 0.026"}, {"measurement": "NP40-soluble protein abundance", "setting": "concentration: 10mM", "value": "1.03 ± 0.025"}]}, {"target": "DDX5 (UniProt P17844)", "values": [{"measurement": "NP40-soluble protein abundance", "setting": "concentration: 1mM", "value": "0.98 ± 0.26"}, {"measurement": "NP40-soluble protein abundance", "setting": "concentration: 2mM", "value": "1.18 ± 0.043"}, {"measurement": "NP40-soluble protein abundance", "setting": "concentration: 4mM", "value": "1.07 ± 0.3"}, {"measurement": "NP40-soluble protein abundance", "setting": "concentration: 6mM", "value": "1.51 ± 0.19"}, {"measurement": "NP40-soluble protein abundance", "setting": "concentration: 8mM", "value": "1.24 ± 0.34"}, {"measurement": "NP40-soluble protein abundance", "setting": "concentration: 10mM", "value": "1.65 ± 0.39"}]}, {"target": "UniProt P20340 and related entries", "values": [{"measurement": "NP40-soluble protein abundance", "setting": "concentration: 1mM", "value": "1.05 ± 0.087"}, {"measurement": "NP40-soluble protein abundance", "setting": "concentration: 2mM", "value": "1.02 ± 0.053"}, {"measurement": "NP40-soluble protein abundance", "setting": "concentration: 4mM", "value": "1.01 ± 0.069"}, {"measurement": "NP40-soluble protein abundance", "setting": "concentration: 6mM", "value": "0.991 ± 0.13"}, {"measurement": "NP40-soluble protein abundance", "setting": "concentration: 8mM", "value": "1.04 ± 0.062"}, {"measurement": "NP40-soluble protein abundance", "setting": "concentration: 10mM", "value": "0.983 ± 0.066"}]}, {"target": "FAH (UniProt P16930)", "values": [{"measurement": "NP40-soluble protein abundance", "setting": "concentration: 1mM", "value": "0.974 ± 0.097"}, {"measurement": "NP40-soluble protein abundance", "setting": "concentration: 2mM", "value": "0.939 ± 0.068"}, {"measurement": "NP40-soluble protein abundance", "setting": "concentration: 4mM", "value": "0.93 ± 0.085"}, {"measurement": "NP40-soluble protein abundance", "setting": "concentration: 6mM", "value": "0.91 ± 0.11"}, {"measurement": "NP40-soluble protein abundance", "setting": "concentration: 8mM", "value": "0.95 ± 0.062"}, {"measurement": "NP40-soluble protein abundance", "setting": "concentration: 10mM", "value": "0.913 ± 0.054"}]}, {"target": "UniProt P33240 and related entries", "values": [{"measurement": "NP40-soluble protein abundance", "setting": "concentration: 1mM", "value": "0.963 ± 0.057"}, {"measurement": "NP40-soluble protein abundance", "setting": "concentration: 2mM", "value": "0.964 ± 0.022"}, {"measurement": "NP40-soluble protein abundance", "setting": "concentration: 4mM", "value": "0.97 ± 0.05"}, {"measurement": "NP40-soluble protein abundance", "setting": "concentration: 6mM", "value": "0.981 ± 0.033"}, {"measurement": "NP40-soluble protein abundance", "setting": "concentration: 8mM", "value": "0.97 ± 0.031"}, {"measurement": "NP40-soluble protein abundance", "setting": "concentration: 10mM", "value": "0.976 ± 0.01"}]}, {"target": "UniProt P17252", "values": [{"measurement": "NP40-soluble protein abundance", "setting": "concentration: 1mM", "value": "0.99 ± 0.02"}, {"measurement": "NP40-soluble protein abundance", "setting": "concentration: 2mM", "value": "0.988 ± 0.041"}, {"measurement": "NP40-soluble protein abundance", "setting": "concentration: 4mM", "value": "0.945 ± 0.034"}, {"measurement": "NP40-soluble protein abundance", "setting": "concentration: 6mM", "value": "0.986 ± 0.067"}, {"measurement": "NP40-soluble protein abundance", "setting": "concentration: 8mM", "value": "0.952 ± 0.051"}, {"measurement": "NP40-soluble protein abundance", "setting": "concentration: 10mM", "value": "0.944 ± 0.043"}]}, {"target": "PGAM1 (UniProt P18669)", "values": [{"measurement": "NP40-soluble protein abundance", "setting": "concentration: 1mM", "value": "0.964 ± 0.21"}, {"measurement": "NP40-soluble protein abundance", "setting": "concentration: 2mM", "value": "1.02 ± 0.1"}, {"measurement": "NP40-soluble protein abundance", "setting": "concentration: 4mM", "value": "0.859 ± 0.12"}, {"measurement": "NP40-soluble protein abundance", "setting": "concentration: 6mM", "value": "1.04 ± 0.14"}, {"measurement": "NP40-soluble protein abundance", "setting": "concentration: 8mM", "value": "0.922 ± 0.021"}, {"measurement": "NP40-soluble protein abundance", "setting": "concentration: 10mM", "value": "0.852 ± 0.1"}]}, {"target": "CCND3 (UniProt P30281)", "values": [{"measurement": "NP40-soluble protein abundance", "setting": "concentration: 1mM", "value": "0.938 ± 0.09"}, {"measurement": "NP40-soluble protein abundance", "setting": "concentration: 2mM", "value": "0.94 ± 0.06"}, {"measurement": "NP40-soluble protein abundance", "setting": "concentration: 4mM", "value": "0.876 ± 0.03"}, {"measurement": "NP40-soluble protein abundance", "setting": "concentration: 6mM", "value": "0.869 ± 0.037"}, {"measurement": "NP40-soluble protein abundance", "setting": "concentration: 8mM", "value": "0.87 ± 0.014"}, {"measurement": "NP40-soluble protein abundance", "setting": "concentration: 10mM", "value": "0.939 ± 0.019"}]}]}
